Measurements: article PMC12803514

The chains behind the UniProt entries cited, without tags or fusion partners.
UniProt Q15717, whole entry: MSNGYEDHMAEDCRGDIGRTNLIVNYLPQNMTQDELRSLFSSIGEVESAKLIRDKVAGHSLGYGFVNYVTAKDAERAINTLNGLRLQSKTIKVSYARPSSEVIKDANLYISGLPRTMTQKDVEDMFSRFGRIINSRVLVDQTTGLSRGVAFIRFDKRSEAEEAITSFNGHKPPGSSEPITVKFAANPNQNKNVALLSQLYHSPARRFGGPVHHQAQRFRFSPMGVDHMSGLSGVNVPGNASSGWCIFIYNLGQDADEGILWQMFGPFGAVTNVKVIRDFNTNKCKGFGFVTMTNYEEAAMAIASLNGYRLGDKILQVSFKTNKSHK

Experiments:
[1] = biological target: HuR in whole-cell extract (Homo sapiens) (UniProt Q15717); experiment: EMSA supershift; details: anti-HuR 3A2, 10 µg whole-cell extract; 20 mM HEPES pH 7.6, 3 mM MgCl2, 40 mM KCl, 5% glycerol, 2 mM DTT, 20 µg yeast tRNA, 20 U RNasin, 20 µL, on ice 10 min (plus 15 min with antibody); 5% native PAGE; protein in an extract
[2] = biological target: HuR (ELAVL1 human recombinant protein) (Homo sapiens) (UniProt Q15717); experiment: EMSA; details: HuR 0-150 µM as printed (25-200 µM in Methods); 20 mM HEPES pH 7.6, 3 mM MgCl2, 40 mM KCl, 5% glycerol, 2 mM DTT, 20 µg yeast tRNA, 20 U RNasin, 20 µL, on ice 10 min (plus 15 min with antibody); 5% native PAGE; commercial protein

Sequence | binding signal (fold (reference)) [1] | binding result [2] | binding signal (fold vs rs13900C) [1]
CUUUCCCCAGACACCCUGUUUUAUUU [rs13900C oligoribonucleotide] | 1 | binds more weakly | –
CUUUCCCCAGACACCUUGUUUUAUUU [rs13900T oligoribonucleotide] | – | – | 7

For at least one entry, the source does not settle the construct or the ends of the probe. For part of these data: Weaker means in comparison with the reference protein, sequence or condition of that experiment. For part of these data: Where cells or extracts were used, other partners may take part. For part of these data: Whether high values mean tight binding is not given here for every scale.
